Measurements: paper PMC8001828

Sequences of proteins named here, by UniProt entry; tags and fusion partners are left off.
UniProt P61604: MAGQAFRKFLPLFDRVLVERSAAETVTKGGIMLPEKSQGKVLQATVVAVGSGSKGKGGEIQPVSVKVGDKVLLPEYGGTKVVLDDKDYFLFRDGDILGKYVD
UniProt Q8IZT6: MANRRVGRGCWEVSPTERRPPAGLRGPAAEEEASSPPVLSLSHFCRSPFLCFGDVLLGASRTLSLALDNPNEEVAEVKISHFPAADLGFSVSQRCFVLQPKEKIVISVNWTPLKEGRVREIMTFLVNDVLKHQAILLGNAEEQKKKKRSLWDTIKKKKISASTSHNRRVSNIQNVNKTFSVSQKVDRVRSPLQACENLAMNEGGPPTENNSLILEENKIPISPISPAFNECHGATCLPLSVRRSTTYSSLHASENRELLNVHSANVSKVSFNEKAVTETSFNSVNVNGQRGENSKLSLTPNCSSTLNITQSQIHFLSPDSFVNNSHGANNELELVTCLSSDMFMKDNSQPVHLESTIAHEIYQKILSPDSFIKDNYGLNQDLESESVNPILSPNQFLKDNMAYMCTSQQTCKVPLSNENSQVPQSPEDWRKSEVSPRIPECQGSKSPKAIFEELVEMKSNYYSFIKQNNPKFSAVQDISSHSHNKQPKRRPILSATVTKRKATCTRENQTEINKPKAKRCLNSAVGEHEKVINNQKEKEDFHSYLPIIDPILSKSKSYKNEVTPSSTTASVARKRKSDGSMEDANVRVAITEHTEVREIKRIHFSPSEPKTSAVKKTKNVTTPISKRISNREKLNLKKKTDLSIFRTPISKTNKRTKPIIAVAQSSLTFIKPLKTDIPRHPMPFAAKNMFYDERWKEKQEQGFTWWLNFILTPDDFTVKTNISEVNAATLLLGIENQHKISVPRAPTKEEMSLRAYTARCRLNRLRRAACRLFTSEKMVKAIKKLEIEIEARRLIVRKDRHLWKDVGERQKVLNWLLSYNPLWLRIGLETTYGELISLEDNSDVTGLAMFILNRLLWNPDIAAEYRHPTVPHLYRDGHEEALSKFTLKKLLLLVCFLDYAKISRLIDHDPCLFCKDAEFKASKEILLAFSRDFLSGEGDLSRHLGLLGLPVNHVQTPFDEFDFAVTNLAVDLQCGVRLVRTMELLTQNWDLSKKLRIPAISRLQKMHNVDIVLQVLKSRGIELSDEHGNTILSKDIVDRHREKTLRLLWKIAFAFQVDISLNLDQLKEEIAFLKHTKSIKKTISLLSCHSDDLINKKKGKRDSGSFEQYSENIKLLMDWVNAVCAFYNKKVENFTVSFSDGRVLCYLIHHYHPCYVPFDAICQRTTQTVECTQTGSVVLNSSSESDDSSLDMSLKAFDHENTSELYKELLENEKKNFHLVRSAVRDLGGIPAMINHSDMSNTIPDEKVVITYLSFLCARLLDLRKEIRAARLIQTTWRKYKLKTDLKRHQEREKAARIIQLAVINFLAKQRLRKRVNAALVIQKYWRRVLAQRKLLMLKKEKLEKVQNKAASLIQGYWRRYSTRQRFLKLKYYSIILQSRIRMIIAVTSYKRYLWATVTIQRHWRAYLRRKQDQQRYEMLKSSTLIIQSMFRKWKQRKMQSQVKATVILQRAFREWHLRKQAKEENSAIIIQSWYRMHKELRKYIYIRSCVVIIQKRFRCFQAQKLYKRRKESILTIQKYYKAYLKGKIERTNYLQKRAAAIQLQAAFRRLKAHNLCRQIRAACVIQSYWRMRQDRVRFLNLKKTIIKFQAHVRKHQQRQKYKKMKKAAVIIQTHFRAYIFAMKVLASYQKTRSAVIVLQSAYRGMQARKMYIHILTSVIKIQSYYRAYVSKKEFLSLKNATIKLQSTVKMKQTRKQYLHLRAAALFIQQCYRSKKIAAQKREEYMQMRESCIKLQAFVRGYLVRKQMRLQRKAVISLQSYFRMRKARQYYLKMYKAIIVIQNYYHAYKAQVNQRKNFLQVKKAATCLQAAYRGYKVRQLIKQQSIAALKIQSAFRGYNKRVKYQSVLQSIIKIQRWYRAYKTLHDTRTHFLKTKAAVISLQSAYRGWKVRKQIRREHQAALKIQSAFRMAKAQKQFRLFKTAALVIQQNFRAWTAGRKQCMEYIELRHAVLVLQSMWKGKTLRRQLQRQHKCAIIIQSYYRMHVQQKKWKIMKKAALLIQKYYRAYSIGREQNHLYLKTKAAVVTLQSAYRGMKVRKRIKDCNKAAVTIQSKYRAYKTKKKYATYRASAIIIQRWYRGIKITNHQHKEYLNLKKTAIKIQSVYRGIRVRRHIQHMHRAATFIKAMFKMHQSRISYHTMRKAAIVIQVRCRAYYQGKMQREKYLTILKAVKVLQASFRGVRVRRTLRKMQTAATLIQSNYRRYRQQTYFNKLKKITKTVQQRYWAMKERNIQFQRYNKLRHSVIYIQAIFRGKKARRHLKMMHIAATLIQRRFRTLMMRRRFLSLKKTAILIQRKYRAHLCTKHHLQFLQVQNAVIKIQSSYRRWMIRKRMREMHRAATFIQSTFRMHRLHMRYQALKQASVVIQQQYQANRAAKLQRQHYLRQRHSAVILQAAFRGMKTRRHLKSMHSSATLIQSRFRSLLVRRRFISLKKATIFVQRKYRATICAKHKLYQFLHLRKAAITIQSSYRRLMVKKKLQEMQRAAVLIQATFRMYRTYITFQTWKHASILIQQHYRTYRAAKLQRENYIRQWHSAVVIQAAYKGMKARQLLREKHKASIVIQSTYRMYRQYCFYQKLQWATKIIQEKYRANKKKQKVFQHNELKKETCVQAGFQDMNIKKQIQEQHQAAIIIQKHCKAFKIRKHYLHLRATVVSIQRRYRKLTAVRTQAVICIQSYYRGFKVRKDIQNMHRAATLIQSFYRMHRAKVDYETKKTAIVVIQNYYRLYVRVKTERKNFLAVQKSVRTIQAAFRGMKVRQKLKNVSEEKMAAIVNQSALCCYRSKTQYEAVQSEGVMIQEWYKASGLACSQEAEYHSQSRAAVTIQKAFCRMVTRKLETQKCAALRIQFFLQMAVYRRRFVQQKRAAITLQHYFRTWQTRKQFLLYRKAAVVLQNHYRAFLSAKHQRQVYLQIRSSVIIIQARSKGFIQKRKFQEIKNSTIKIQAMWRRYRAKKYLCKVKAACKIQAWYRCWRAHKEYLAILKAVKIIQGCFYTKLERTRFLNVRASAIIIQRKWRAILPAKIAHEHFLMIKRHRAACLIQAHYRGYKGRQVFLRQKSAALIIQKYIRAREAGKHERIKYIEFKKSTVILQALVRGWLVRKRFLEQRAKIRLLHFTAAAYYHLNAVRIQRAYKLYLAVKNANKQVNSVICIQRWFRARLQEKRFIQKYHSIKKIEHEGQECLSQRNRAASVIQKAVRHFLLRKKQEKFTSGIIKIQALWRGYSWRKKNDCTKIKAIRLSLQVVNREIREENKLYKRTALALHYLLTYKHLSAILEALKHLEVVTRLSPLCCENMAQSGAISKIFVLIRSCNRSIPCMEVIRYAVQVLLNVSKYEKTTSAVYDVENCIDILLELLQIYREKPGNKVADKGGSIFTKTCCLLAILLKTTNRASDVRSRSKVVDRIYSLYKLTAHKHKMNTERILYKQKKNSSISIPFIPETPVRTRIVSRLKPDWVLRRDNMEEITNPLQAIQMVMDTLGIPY
UniProt Q96KR1: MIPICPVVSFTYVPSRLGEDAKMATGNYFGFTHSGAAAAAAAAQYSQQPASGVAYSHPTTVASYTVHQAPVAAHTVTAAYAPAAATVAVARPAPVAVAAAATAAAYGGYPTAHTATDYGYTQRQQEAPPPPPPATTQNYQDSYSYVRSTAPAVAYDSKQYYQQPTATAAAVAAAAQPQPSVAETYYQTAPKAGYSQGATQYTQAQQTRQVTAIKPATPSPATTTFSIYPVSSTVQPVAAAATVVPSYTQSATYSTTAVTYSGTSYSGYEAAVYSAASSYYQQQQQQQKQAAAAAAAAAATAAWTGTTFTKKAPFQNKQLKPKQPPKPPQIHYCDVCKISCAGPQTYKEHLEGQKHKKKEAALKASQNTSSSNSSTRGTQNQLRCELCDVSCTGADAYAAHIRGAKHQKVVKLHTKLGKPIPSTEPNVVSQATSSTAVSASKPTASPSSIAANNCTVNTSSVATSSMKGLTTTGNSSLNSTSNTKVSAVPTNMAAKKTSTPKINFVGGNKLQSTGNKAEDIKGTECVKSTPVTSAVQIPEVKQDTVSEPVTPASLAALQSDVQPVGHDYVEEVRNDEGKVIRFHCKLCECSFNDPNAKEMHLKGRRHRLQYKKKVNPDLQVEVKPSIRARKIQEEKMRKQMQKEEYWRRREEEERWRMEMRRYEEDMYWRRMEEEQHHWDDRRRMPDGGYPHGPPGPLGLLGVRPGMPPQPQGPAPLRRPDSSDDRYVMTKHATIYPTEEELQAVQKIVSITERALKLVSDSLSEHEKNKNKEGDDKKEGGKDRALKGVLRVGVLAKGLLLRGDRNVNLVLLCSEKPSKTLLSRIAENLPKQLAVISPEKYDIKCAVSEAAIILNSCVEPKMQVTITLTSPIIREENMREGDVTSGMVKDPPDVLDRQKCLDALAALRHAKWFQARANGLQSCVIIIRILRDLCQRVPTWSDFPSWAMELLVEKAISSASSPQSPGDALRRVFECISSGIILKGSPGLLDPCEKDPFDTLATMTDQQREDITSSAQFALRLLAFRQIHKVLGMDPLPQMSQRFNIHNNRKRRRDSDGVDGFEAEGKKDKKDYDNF

B1: NF-kappa-B-repressing factor (protein, UniProt O15226 1-690)
chain: MEKILQMAEGIDIGEMPSYDLVLSKPSKGQKRHLSTCDGQNPPKKQAGSKFHARPRFEPVHFVASSSKDERQEDPYGPQTKEVNEQTHFASMPRDIYQDYTQDSFSIQDGNSQYCDSSGFILTKDQPVTANMYFDSGNPAPSTTSQQANSQSTPEPSPSQTFPESVVAEKQYFIEKLTATIWKNLSNPEMTSGSDKINYTYMLTRCIQACKTNPEYIYAPLKEIPPADIPKNKKLLTDGYACEVRCQNIYLTTGYAGSKNGSRDRATELAVKLLQKRIEVRVVRRKFKHTFGEDLVVCQIGMSSYEFPPALKPPEDLVVLGKDASGQPIFNASAKHWTNFVITENANDAIGILNNSASFNKMSIEYKYEMMPNRTWRCRVFLQDHCLAEGYGTKKTSKHAAADEALKILQKTQPTYPSVKSSQCHTGSSPRGSGKKKDIKDLVVYENSSNPVCTLNDTAQFNRMTVEYVYERMTGLRWKCKVILESEVIAEAVGVKKTVKYEAAGEAVKTLKKTQPTVINNLKKGAVEDVISRNEIQGRSAEEAYKQQIKEDNIGNQLLRKMGWTGGGLGKSGEGIREPISVKEQHKREGLGLDVERVNKIAKRDIEQIIRNYARSESHTDLTFSRELTNDERKQIHQIAQKYGLKSKSHGVGHDRYLVVGRKRRKEDLLDQLKQEGQVGHYELVMPQAN

Target: Ku70 ∆vWA-BioID2-HA (human) (UniProt P12956)
Assay: proximity labelling; BioID2 in stable HEK293 lines, 50 μM biotin for 24 h, RIPA lysis, streptavidin Dynabeads, on-bead digestion, LC-ESI-MS/MS; three biological replicates; filtered against HEK293 and NLS-BioID2 controls

Row | Molecule | binding
1 | 10 kDa heat shock protein (from UniProt P61604 1-102) | binds
2 | Abnormal spindle-like microcephaly associated protein (from UniProt Q8IZT6 1-3477) | binds
3 | Zinc finger RNA-binding protein (from UniProt Q96KR1 1-1074) | binds
4 | B1 | binds

Results are given in words; binding and its absence hold for the method and conditions named. Binding seen in cells or lysates may run through a third protein. These calls come from enrichment with a bait or labelling near it, and not all partners need be listed.
